Reference: PMC7988490, “Molecular insights into replication initiation in a multipartite genome harboring bacterium Deinococcus radiodurans” (The Journal of Biological Chemistry, 2020)
No constants are given. Whether binding was seen depends on the method and setting. Binding seen in cells or lysates may run through a third protein. A result given as binding can be weak or reduced; the word gives no strength. Sequences can lack the tags named with a protein.

Target: C-terminal truncated DnaA with histidine tag (HisAΔCt), expressed in surrogate E. coli (D. radiodurans)
Test: co-IP; surrogate E. coli co-expressing PprA-C18 and HisAΔCt; total proteins precipitated with antibodies against polyhistidine, detection with antibodies against T18

B1: recombinant PprA (histidine-tagged PprA, His-PprA), purified (natural protein, D. radiodurans, UniProt O32504 1-300, looked up)
chain: MLPLAFLICSGHNKGSMARAKAKDQTDGIYAAFDTLMSTAGVDSQIAALAASEADAGTLDAALTQSLQEAQGRWGLGLHHLRHEARLTDDGDIEILTDGRPSARVSEGFGALAQAYAPMQALDERGLSQWAALGEGYRAPGDLPLAQLKVLIEHARDFETDWSAGRGETFQRVWRKGDTLFVEVARPASAEAALSDAAWDVIASIKDRAFQRELMRRSEKDGMLGALLGARHAGAKANLAQLPEAHFTVQAFVQTLSGAAARNAEEYRAALKTAAAALEEYQGVTTRQLSEVLRHGLRES
In the case of B1, the binding is reported as “binds”.
